Experimental data as given in patent US20240131171.
A negative result means that nothing was seen under these conditions. Weaker means in comparison with the reference protein, sequence or condition of that experiment. Construct, isoform or probe ends are uncertain for at least one entry.

Chains of the proteins cited; added tags and fusions are not shown. A line that says so, or that is headed by a name, gives the form on record, which may keep a tag or linker.
coagulation factor IXa (FIXa) (Homo sapiens), one chain, as listed by the source, chain 2 of 2: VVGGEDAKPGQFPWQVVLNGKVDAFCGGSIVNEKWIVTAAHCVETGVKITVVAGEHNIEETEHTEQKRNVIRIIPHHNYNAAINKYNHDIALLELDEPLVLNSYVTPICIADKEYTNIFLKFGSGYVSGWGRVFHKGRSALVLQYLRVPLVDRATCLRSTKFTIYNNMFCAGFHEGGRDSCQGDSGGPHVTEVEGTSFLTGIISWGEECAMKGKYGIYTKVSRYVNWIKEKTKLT
coagulation factor IXa (FIXa) (Homo sapiens), one chain, as listed by the source, chain 1 of 2: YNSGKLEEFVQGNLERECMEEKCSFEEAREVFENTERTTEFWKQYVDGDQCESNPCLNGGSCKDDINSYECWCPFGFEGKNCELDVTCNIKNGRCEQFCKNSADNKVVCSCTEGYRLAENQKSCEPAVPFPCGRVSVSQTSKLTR

Test system: coagulation factor IXa (FIXa) (Homo sapiens)
Test: inhibition of the protein
Conditions: protein in an extract

CGCGGUAUAGUCCAC [RB007 antidote oligonucleotide]
functional effect of the aptamer (all 2'-OMe (SEQ ID NO: 2), modified aPTT, RB007 alone did not affect clotting, dose not given here): not active

GUGGACUAUACCGCGUAAUGCUGCCUCCAC / CGCGGUAUAGUCCAC [POEGMA-RB005 + RB007 antidote]
functional effect of the aptamer (aptamer strand as POEGMA-RB005, RB007 strand all 2'-OMe, modified aPTT, conjugate 392 nM, varying molar excess RB007, dose-dependent reversal of anticoagulant activity, variant of POEGMA-RB005): less active

GUGGACUAUACCGCGUAAUGCUGCCUCCAC / CGCGGUAUAGUCCAC [RB006 + RB007 antidote]
functional effect of the aptamer (aptamer strand as RB006, RB007 strand all 2'-OMe, modified aPTT, conjugate 392 nM, varying molar excess RB007, dose-dependent reversal of anticoagulant …): less active

GUGGACUAUACCGCGUAAUGCUGCCUCCAC [POEGMA-RB005]
functional effect of the aptamer (2'-F C/U at 6,7,9,11,12,14,16,19,21,25,26, 2'-OH G at 23, 2'-OMe at all other positions, 3' idT, 5' hexylamino linker-DBCO-POEGMA (EG3 side chains, about 40 kDa) (SEQ ID NO: 1), aPTT assay in pooled human plasma, 37 C, CaCl2, baseline about 30 s, comparable to RB006 (p=0.92), dose not given here): active

GUGGACUAUACCGCGUAAUGCUGCCUCCAC [RB006 (PEG-RB005, pegnivacogin biosimilar)]
functional effect of the aptamer (2'-F C/U at 6,7,9,11,12,14,16,19,21,25,26, 2'-OH G at 23, 2'-OMe at all other positions, 3' idT, 5' hexylamino linker-40 kDa 2-arm branched PEG (SEQ ID NO: 1), aPTT assay in pooled human plasma, 37 C, CaCl2, baseline about 30 s, dose not given here): active
